Results: article PMC7618045, “Outer membrane utilisomes mediate oligosaccharide uptake in gut Bacteroidetes” (Nature, 2023)

Target: T1, SusD^lev with His6 tag (B. thetaiotaomicron) (UniProt Q8A6W4)
T1 sequence (chain, acyl-cysteine as the first residue (lipoprotein)): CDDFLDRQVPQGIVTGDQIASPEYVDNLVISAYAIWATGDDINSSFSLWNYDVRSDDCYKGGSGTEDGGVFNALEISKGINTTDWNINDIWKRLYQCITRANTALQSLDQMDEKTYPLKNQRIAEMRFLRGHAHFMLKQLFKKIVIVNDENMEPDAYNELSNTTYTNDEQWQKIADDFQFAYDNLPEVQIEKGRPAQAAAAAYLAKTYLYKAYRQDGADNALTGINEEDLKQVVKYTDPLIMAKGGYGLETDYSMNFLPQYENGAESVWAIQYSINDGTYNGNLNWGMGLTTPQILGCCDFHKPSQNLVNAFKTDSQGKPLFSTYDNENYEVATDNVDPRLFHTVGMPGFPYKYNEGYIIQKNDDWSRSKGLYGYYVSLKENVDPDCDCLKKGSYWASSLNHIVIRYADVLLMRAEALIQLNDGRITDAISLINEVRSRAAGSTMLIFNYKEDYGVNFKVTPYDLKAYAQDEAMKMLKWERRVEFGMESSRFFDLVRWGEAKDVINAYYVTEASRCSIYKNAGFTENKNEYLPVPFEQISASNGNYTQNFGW
Test: affinity purification with mass spectrometry; previously studied LDAO-purified SusCD^lev (His6 tag on SusD^lev) from B. theta; SDS-PAGE before and after boiling, weak extra bands identified by mass spectrometry

binding: binds
B1: GH^lev (Bt1760; GH32 endo-levanase) (enzyme, UniProt Q8A6W6 21-523)
chain: CSDETDPILTQKNWDGTATYFQSSDEHGFSMYYKPQVGFVGDPMPFYDPVAKDFKVMYLQDYRPNPEATYHPIFGVATKDGATYESLGELISCGGRDEQDAAIGTGGTIYNPADKLYYTFYTGNKFKPSSDQNAQVVMVATSPDFKTWTKNRTFYLKGDTYGYDKNDFRDPFLFQTEDGVYHMLIATRKNGKGHIAEFTSADLKEWESAGTFMTMMWDRFYECPDVFKMGDWWYLIYSEQASFMRKVQYFKGRTLEDLKATTANDAGIWPDNREGMLDSRAFYAGKTASDGTNRYIWGWCPTRAGNDNGNVGDVEPEWAGNLVAQRLIQHEDGTLTLGVPDAIDRKYTSAQEVKVMAKDGNMIESGKTYTLGEGASVIFNRLKVHNKISFTVKTASNTDRFGISFVRGTDSASWYSIHVNADEGKANFEKDGDDAKYLFDNKFNIPADNEYRVTIYSDQSVCVTYINDQLSFTNRIYQMQKNPWSLCCYKGEITVSDVQVSTY
modifications: acyl-cysteine as the first residue (lipoprotein)

binding: binds
B2: SusC^lev (natural protein, B. thetaiotaomicron, UniProt Q8A6W3 26-1041, looked up)
chain: GQNITVKGNVTSKTDGQPIIGASVVETTATTNGTITDFDGNFTLSVPVNSTLKITYIGYKPVTVKAAAIVNVLLEEDTQMVDEVVVTGYTTQRKADLTGAVSVVKVDEIQKQGENNPVKALQGRVPGMNITADGNPSGSATVRIRGIGTLNNNDPLYIIDGVPTKAGMHELNGNDIESIQVLKDAASASIYGSRAANGVIIITTKQGKKGQIKINFDASVSASMYQSKMNVLNTEQYGRAMWQAYVNDGENPNGNALGYAYNWGYNADGNPVLYGMTLSKYLDSKNTMPVADTDWFDEITRTGVIQQYNLSVSNGSEKGSSFFSLGYYKNLGVIKDTDFDRFSARMNSDYKLIDDILTIGQHFTLNRTSEVQAPGGIIETALDIPSAIPVYASDGSWGGPVGGWPDRRNPRAVLEYNKDNRYTYWRMFGDAYVNLTPFKGFNLRSTFGLDYANKQARYFTYPYQEGTQTNNGKSAVEAKQEHWTKWMWNAIATYQLEVGKHRGDVMIGMELNREDDSHFSGYKEDFSILTPDYMWPDAGSGTAQAYGAGEGYSLVSFFGKMNYSYADRYLLSLTLRRDGSSRFGKNHRYATFPSVSLGWRITQENFMKELTWLDDLKLRASWGQTGNQEISNLARYTIYAPNYGTTDSFGGQSYGTAYDITGSNGGGVLPSGFKRNQIGNDNIKWETTTQTNVGIDFSLFKQSLYGSLEYYYKKATDILTEMAGVGVLGEGGSRWINSGAMKNQGFEFNLGYRNKTAFGLTYDLNGNISTYRNEILELPETVAANGKFGGNGVKSVVGHTYGAQVGYIADGIFKSQDEVDNHATQEGAAVGRIRYRDIDHNGVIDERDQNWIYDPTPSFSYGLNIYLEYKNFDLTMFWQGVQGVDIISDVKKKSDFWSASNVGFLNKGTRLLNAWSPTNPNSDIPALTRSDTNNEQRVSTYFVENGSFLKLRNIQLGYTVPAVISKKMRMDRLRFYCSAQNLLTIKSKNFTGEDPENPNFSYPIPVNITFGLNIGF
notes: SusC^lev, the TonB-dependent outer membrane transporter (SusC) of the levan PUL of B. thetaiotaomicron; Two copies stand in the utilisome (SusC2D2 core); written here without a tag; also called levan SusC; source: endogenous, B. thetaiotaomicron grown on fructose; co-purified from detergent-solubilised membranes (LDAO sample; DDM sample: Ni2+ column, SEC)

These are yes or no findings as the source states them, for the method shown. Binding seen in cells or lysates may run through a third protein. A yes stands for co-enrichment or nearness to the bait. Other partners may have been found. Tags and fused reporters may be left off the sequences shown. Each block holds one binder with its values, some of them ahead of it.
